Measurements reported in PubChem BioAssay AID1224830 (NIAID, 2016)

Purpose: 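Host factors that control LPS-induced TNF expression in human macrophages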 (primary screen)
Cell system: human THP-1 monocytic leukaemia cells, TNF dual-luciferase reporter clone, PMA-differentiated to macrophage-like cells
Reagents: siRNA pool against human genes, 50 nM
Duration: LPS for 4 h, given about 3 days after siRNA transfection
Treatment: bacterial LPS (TLR4 ligand), 10 ng/ml
Detection: 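TNF firefly reporter luminescence divided by renilla, normalised to the plate median, then turned into a robust z-score for each replicate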
Scale: TNF reporter robust z-score: higher = stronger TNF reporter response to LPS
Call rule: 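a well is active when its z-score exceeds 2.8 or falls below -1.5; control wells carry no call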
Shown is one part, drawn at random, of about 18,000 deposited reagents. Over the whole deposit, about 2,900 (16%) were called active. 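Calls are made per well; low scores hint the gene aids the LPS response, high scores that it dampens it.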 Reagents against one gene are numbered here. Repeated entries: four replicate wells of each siRNA pool.

| TNF reporter robust z-score | call | gene symbol | pool no. |
| --- | --- | --- | --- |
| -0.66 | inactive | ANKRD23 (GeneID 200539) | 1 |
| -0.13 | inactive | ANKRD23 (GeneID 200539) | 1 |
| -0.4 | inactive | ANKRD23 (GeneID 200539) | 1 |
| -0.23 | inactive | ANKRD23 (GeneID 200539) | 1 |
| 1.77 | inactive | OR1E1 (GeneID 8387) | 1 |
| -1.31 | inactive | OR1E1 (GeneID 8387) | 1 |
| -0.78 | inactive | OR1E1 (GeneID 8387) | 1 |
| -0.4 | inactive | OR1E1 (GeneID 8387) | 1 |
| 0.27 | inactive | XG (GeneID 7499) | 1 |
| -1.09 | inactive | XG (GeneID 7499) | 1 |
| -0.75 | inactive | XG (GeneID 7499) | 1 |
| 0.34 | inactive | NHSL2 (GeneID 340527) | 1 |
| 1.11 | inactive | NHSL2 (GeneID 340527) | 1 |
| 0.1 | inactive | NHSL2 (GeneID 340527) | 1 |
| 0.67 | inactive | NHSL2 (GeneID 340527) | 1 |
| -1.26 | inactive | NHSL2 (GeneID 340527) | 2 |
| -1.28 | inactive | NHSL2 (GeneID 340527) | 2 |
| 1.24 | inactive | NHSL2 (GeneID 340527) | 2 |
| -0.33 | inactive | NHSL2 (GeneID 340527) | 2 |
| 1.62 | inactive | CYP17A1 (GeneID 1586) | 1 |
| -0.08 | inactive | CYP17A1 (GeneID 1586) | 1 |
| -0.76 | inactive | CYP17A1 (GeneID 1586) | 1 |
| 0.27 | inactive | CYP17A1 (GeneID 1586) | 1 |
| 0.53 | inactive | RFLNA (GeneID 144347) | 1 |
| -0.54 | inactive | RFLNA (GeneID 144347) | 1 |
| 0.76 | inactive | RFLNA (GeneID 144347) | 1 |
| 0.17 | inactive | RFLNA (GeneID 144347) | 1 |
| 0.05 | inactive | GDI2 (GeneID 2665) | 1 |
| -0.46 | inactive | GDI2 (GeneID 2665) | 1 |
| -0.17 | inactive | GDI2 (GeneID 2665) | 1 |
| 0.87 | inactive | MPV17L2 (GeneID 84769) | 1 |
| -0.09 | inactive | MPV17L2 (GeneID 84769) | 1 |
| -0.02 | inactive | MPV17L2 (GeneID 84769) | 1 |
| -0.23 | inactive | MPV17L2 (GeneID 84769) | 1 |
| 0.26 | inactive | TSGA10 (GeneID 80705) | 1 |
| 11.3 | active | TSGA10 (GeneID 80705) | 1 |
| 0.89 | inactive | TSGA10 (GeneID 80705) | 1 |
| 1.33 | inactive | TSGA10 (GeneID 80705) | 1 |
| 5.78 | active | PLSCR2 (GeneID 57047) | 1 |
| 4.93 | active | PLSCR2 (GeneID 57047) | 1 |
| 1.61 | inactive | PLSCR2 (GeneID 57047) | 1 |
| 1.72 | inactive | PLSCR2 (GeneID 57047) | 1 |
| -0.76 | inactive | DHRS11 (GeneID 79154) | 1 |
| 0.02 | inactive | DHRS11 (GeneID 79154) | 1 |
| -0.56 | inactive | DHRS11 (GeneID 79154) | 1 |
| 0.98 | inactive | DHRS11 (GeneID 79154) | 1 |

8 of these entries, reformatted.
TNF reporter robust z-score | call | gene symbol | pool no.
0.67 | inactive | NHSL2 (GeneID 340527) | 1
-1.26 | inactive | NHSL2 (GeneID 340527) | 2
-1.28 | inactive | NHSL2 (GeneID 340527) | 2
1.24 | inactive | NHSL2 (GeneID 340527) | 2
-0.33 | inactive | NHSL2 (GeneID 340527) | 2
1.62 | inactive | CYP17A1 (GeneID 1586) | 1
-0.08 | inactive | CYP17A1 (GeneID 1586) | 1
-0.76 | inactive | CYP17A1 (GeneID 1586) | 1
